Data published in PMC9962212.
Construct, isoform or probe ends are uncertain for at least one entry. Negatives hold for the conditions tested.

Tested on: FlhD + FlhC
Test: EMSA
Conditions: up to 100 nM FlhDC, 0.1 pmol probe, EMSA: 37 °C, 30 min in gel shift buffer (composition not given), FlhDC 0/10/30/100 nM, recombinant protein, label: none (GelRed stain), probe letters rebuilt from the primers and the genome

## CGTTTGCGCAACGCTCGCGAATTTTTCTCTTTCAATGGTGATCACAATTTTGACTGTGGTTACCGTGGGCAAAATACAGAAATTACATTGATGATTGTGGATAACTCTGTGCGTAAAAAGGTATAAAGCGGGCTTTTGCTGGGGAATGCAGCAGTCAGTCATTTTTCTGCAATTTTTCTATTGCGGCCTGCGGAGAACTCCCTATAATGCGCCTCCATCGACACGGCGGATGTGAATCACTTCACACAAACAGCCGGTTCGGTTGAAGAGAAAAATCCTGAAATTCAGGGTTGACTCTGAAAGAGGAAAGCGTAATATACGCCACCTCGCGACAGTGCGCTAAAGCGCGTCGCAACTGCTCTTTAACAATTTATCAGACAATCTGTGTGGGCACTCGAAG (double strand) [purH/rrsE probe]
  binding result: no binding
